In the supplement of paper PMC11150407:
Out of some 3,000 compounds screened, about 45 (2%) showed an effect of 50% or more. The list shows a part of the results.

test system: MOLM1 and UCSD/AML1 (averaged); assay: cell viability relative to DMSO control (POC); higher = less growth inhibition; details: 1 µM; 72 h
Method: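 Primary viability screen in the 3q26 EVI1-high AML cell lines MOLM1 and UCSD/AML1, compounds at 1 uM for 72 h. ATP CellTiter-Glo read-out given as percent viable over DMSO control (POC), averaged over duplicates. This mapping covers the TimTec NDL-3000 natural derivative library, whose compounds are identified by TimTec catalogue codes (ST...).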

| Structure (SMILES) | cell viability [%] |
| --- | --- |
| CCOC(=O)/C=C/c1cccc([N+](=O)[O-])c1 | 101 |
| O=C(Cn1c(=O)cc(C(=O)N2CCOCC2)c2ccccc21)Nc1ccccc1F | 97.1 |
| O=C(OCc1ccccc1)C1CCCN1c1nc(-c2ccc(Br)cc2)cs1 (configuration not stated) | 99.9 |
| Cc1cccc(NC(=O)C(Cc2c[nH]c3ccccc23)NC(=O)Oc2ccccc2)c1 (configuration not stated) | 102 |
| COc1cc(C(=O)N(Cc2nc(-c3cccc(C)c3)no2)C(C)C)cc(OC)c1OC | 96.2 |
| CCOc1cc(C2C(C(=O)OC)=C(C)NC3=C2C(=O)CC(c2ccc(OC)cc2)C3)cc(Br)c1O (configuration not stated) | 111 |
| O=c1c(Cc2ccccc2)c(O)c2ccccc2n1-c1ccccc1 | 102 |
| COc1cc(C(=O)N2N=C3CCCCC3C2(O)C(F)(F)F)cc(OC)c1OC (configuration not stated) | 106 |
| COc1ccc(CC(=O)NNC(=O)CCC(=O)O)cc1 | 108 |
| CC1(C)OC(c2cccc(OCc3cc(=O)[nH]c4ccccc34)c2)OC1(C)C | 102 |
| COc1cc(C(=O)CCN(C)C)cc(OC)c1OC | 83 |
| Cc1cc(=O)oc2cc(OCC(=O)Oc3ccc(Cl)c(Cl)c3)ccc12 | 102 |
| Cc1c(-c2ccc(O)cc2)c(=O)oc2ccc(Br)cc12 | 97.1 |
| COc1ccc(C(=O)Nc2ccc(C)cc2Br)cc1OC | 101 |
| CN(C)c1ccc(/C=N/NC(=O)CNc2n[nH]c(=O)[nH]c2=O)cc1 | 96.6 |
| Cc1ccc2c(CN3CCN(Cc4cccc(Br)c4)CC3)cc(=O)oc2c1 | 106 |
| COc1ccc(-c2oc3cc(C)ccc3c(=O)c2O)cc1 | 93.9 |
| COc1ccc2[nH]cc(CCNC(=O)C(=O)c3c(-c4ccccc4)n(C)c4ccccc34)c2c1 | 95.2 |
| COC(=O)C1CC23CCC[N+]4(C)CCC5(c6ccccc6NC15CC2)C34 (configuration not stated) | 98.6 |
| Cc1ccc2c(O)c([N+](=O)[O-])c(=O)oc2c1 | 103 |
| CCOc1ccc(CCNC(=O)c2cc3ccccc3oc2=O)cc1OCC | 95.7 |
| CCCCCCCCOCCNC(=O)c1cc(OC)c(OC)c(OC)c1 | 96.6 |

| Structure (SMILES) | cell viability [%] |
| --- | --- |
| COc1ccc2[nH]cc(CCNS(=O)(=O)Cc3ccccc3)c2c1 | 100 |
| COc1ccc(-c2coc3cc(OC)c(OC)cc3c2=O)cc1 | 97 |
| COC(=O)C(Cc1ccc(O)cc1)NC(=O)C(NC(=O)OCc1ccccc1)C(C)C (configuration not stated) | 84.7 |
| CCNC(=O)C(=O)NCCc1c[nH]c2ccccc12 | 109 |
| CCOC(=O)C1=C(c2ccccc2)N(C)C(=O)NC1c1ccc(O)c(OC)c1 (configuration not stated) | 91.8 |
| CC(=O)OC1CCC2(C)C(=CCC3C2CCC2(C)C3CC3OC32[C@H](C)OC(C)=O)C1 (some centres not stated) | 107 |
| COc1cc(C2C(C(=O)OC(C)C)=C(C)NC3=C2C(=O)CCC3)cc(Cl)c1O (configuration not stated) | 113 |
| O=c1oc2cc(O)ccc2c(Cc2ccc(Cl)cc2)c1-c1ccccc1 | 99.4 |
| COC(=O)c1cc(OC)c(OC)cc1NC(=O)c1c[nH]c2ccccc12 | 94.5 |
| CNC(=O)Cn1cnc2c1c(=O)n(C)c(=O)n2C | 98.1 |
| Cn1c(=O)c2c(nc3scc(CN4CCNCC4)n32)n(C)c1=O | 105 |
| COc1cc(C2C(C#N)=C(N)Oc3n[nH]c(C(C)C)c32)ccc1O (configuration not stated) | 104 |
| COc1cc(N)cc(CCC(=O)O)c1OC | 91 |
| O=C(/C=C/c1ccc(Cl)cc1Cl)c1cccc2ccccc12 | 95.1 |
| O=C(/C=C/c1cccc(NC(=O)c2ccc(Br)cc2)c1)c1cccc(NC(=O)c2ccc(Br)cc2)c1 | 1.83 |
| CCOc1ccccc1-c1nc(CSc2nc3c(=O)[nH]cnc3n2-c2ccc(C)cc2)c(C)o1 | 101 |
| CCCCc1[nH]nc2c1C(c1cc(OC)c3c(c1)OCO3)C(C#N)=C(N)O2 (configuration not stated) | 102 |
| CC(=O)N1CCc2ccccc2C1 | 104 |
| COC(=O)/C(C#N)=C/c1cc(OC)cc(OC)c1 | 90.6 |
| CCOC(=O)c1c(CN2CCCCC2)n(-c2ccccc2)c2cc(Br)c(OC)cc12 | 90.2 |
| Cc1c(-c2cccc(Cl)c2)c(=O)oc2cc(O)ccc12 | 103 |
| CCOC(=O)C(Cc1ccccc1)NC(=O)c1ccccc1 (configuration not stated) | 103 |

Entries shown so far that have a cyano group (three):

| Structure (SMILES) | cell viability [%] |
| --- | --- |
| COc1cc(C2C(C#N)=C(N)Oc3n[nH]c(C(C)C)c32)ccc1O (configuration not stated) | 104 |
| CCCCc1[nH]nc2c1C(c1cc(OC)c3c(c1)OCO3)C(C#N)=C(N)O2 (configuration not stated) | 102 |
| COC(=O)/C(C#N)=C/c1cc(OC)cc(OC)c1 | 90.6 |

Reprinted from the listing (two entries):

| Structure (SMILES) | cell viability [%] |
| --- | --- |
| COC(=O)/C(C#N)=C/c1cc(OC)cc(OC)c1 | 90.6 |
| CCOC(=O)c1c(CN2CCCCC2)n(-c2ccccc2)c2cc(Br)c(OC)cc12 | 90.2 |

(further entries)

| Structure (SMILES) | cell viability [%] |
| --- | --- |
| COc1cccc(C(=O)N2CCN(C(=O)c3cccc(OC)c3OC)CC2)c1 | 103 |
| COCCOC(=O)c1c(C)n(CCCNc2ccc([N+](=O)[O-])cc2Cl)c2c1cc(O)c1ccccc12 | 92.1 |
| O=C(Cc1n[nH]c(=O)[nH]c1=O)N/N=C/c1c(O)ccc2ccccc12 | 109 |
| CCc1ccc(C(c2c(O)c3cccc(-c4ccccc4)c3[nH]c2=O)c2c(O)c3ccccc3n(-c3ccccc3)c2=O)cc1 (configuration not stated) | 99.8 |
| COc1ccc(Cl)cc1NC(=O)CSc1nc2c(=O)[nH]cnc2n1C | 97.5 |
| O=c1oc2cc(O)ccc2c(Cc2ccccc2)c1-c1ccccc1 | 95.9 |
| N#Cc1nc2ccccc2n1CC(=O)NCc1ccc2c(c1)CCC(=O)N2 | 107 |
| NC(=O)NCCCCC(N)C(=O)O (configuration not stated) | 95.9 |
| O=C(CN1CCc2ccccc2C1)Nc1ccc(S(=O)(=O)N2CCOCC2)cc1 | 108 |
| Cc1[nH]c2ccc(O)cc2c1C(=O)O | 108 |
| COc1ccc(/C=C/C(C)=O)cc1 | 94.9 |
| Cc1[nH]c2ccccc2c1CCNC(=O)c1cc(S(=O)(=O)NC2CC2)c(Cl)cc1Cl | 96.6 |
| C#CCOc1ccc(C2Nc3ccccc3NC3=C2C(=O)CC(C)(C)C3)cc1 (configuration not stated) | 96.1 |
| COc1ccc(C(=O)[C@@H]2[C@H]3C4COC(O4)C(=O)[C@@H]3[C@H]3C=Cc4ccccc4N32)cc1 (some centres not stated) | 104 |
| COc1ccc2cc(-c3cccc(Cl)c3)c(=O)oc2c1 | 109 |
| COc1ccc(CC(=O)N/N=C/c2c(O)c(O)c(C(C)C)c3cc(C)c(-c4c(C)cc5c(C(C)C)c(O)c(O)c(/C=N/NC(=O)Cc6ccc(OC)c(OC)c6)c5c4O)c(O)c23)cc1OC | 103 |
| COc1cc(C(=O)NC(C(=O)OCCC(C)C)c2ccccc2)cc(OC)c1OC (configuration not stated) | 92.6 |
| CC(=O)c1cc(O)cc(O)c1 | 101 |
| COc1ccc(NC(=O)c2cc(OC)c(OC)c(OC)c2Br)cc1OC | 92.4 |
| CCn1c(SCC(=O)Nc2ccc(C)c(C)c2)nc2c(=O)[nH]cnc21 | 94.7 |
| CCn1cc(/C=C/C(=O)c2ccc(O)cc2)c(C)n1 | 114 |
| CCOc1ccccc1NC(=O)CSc1nc2c(=O)[nH]cnc2n1C | 111 |

| Structure (SMILES) | cell viability [%] |
| --- | --- |
| CCOc1ccc(NC(=O)CSc2nc3c(=O)[nH]cnc3n2-c2ccc(C)cc2)cc1 | 100 |
| C1COCCN1.COC(=O)C1=C(C)NC(=S)C(=C=N)C1c1cc(OC)c(OC)c(OC)c1 (configuration not stated) | 117 |
| CC(=O)NC(Cc1cc2ccccc2[nH]1)C(=O)NCc1ccco1 (configuration not stated) | 98.6 |
| COc1ccc2oc(=O)cc(CN3CCN(Cc4ccccc4F)CC3)c2c1 | 90.8 |
| CCOc1ccccc1/C=N/NC(=O)CNc1n[nH]c(=O)[nH]c1=O | 102 |
| Cc1ccc(C)c2c1NC(C(=O)O)C1CC=CC21 (configuration not stated) | 97 |
| S=c1nc[nH]c2nc[nH]c12 | 89.3 |
| COc1ccc(-c2nc(CSc3nc4ccccc4c(=O)[nH]3)c(C)o2)cc1 | 94.9 |
| COc1ccc2c(C)nc(/N=C(\N)NC(C)=O)nc2c1 | 90 |
| Cc1ccc(NC(=O)c2cc3ccccc3oc2=N)cc1C | 94.9 |
| CCOc1cc2c(cc1OCC)C(c1ccc(C(=O)O)cc1)NCC2 (configuration not stated) | 97.7 |
| C=CCn1c(=O)n(CC=C)c(=O)n(CC=C)c1=O | 88 |
| CCN(CC)C(=O)c1cc(=O)n(CC(=O)Nc2cccc(F)c2)c2ccccc12 | 96.5 |
| Cn1c(=O)cc(C(=O)O)[nH]c1=O | 97.9 |
| COc1ccc(-c2nc(CSc3nc4c(=O)[nH]cnc4n3C)c(C)o2)cc1OC | 88.7 |
| O=c1oc2cc(O)ccc2cc1-c1cccc(Br)c1 | 99.9 |
| COc1cc(-c2nnc(CSc3nc(-c4ccccc4)c(-c4ccccc4)[nH]3)o2)cc(OC)c1OC | 103 |
| O=c1cc(-c2ccccc2)oc2c(Br)cc(Br)cc12 | 113 |
| CCOC(=O)c1c(CC(C#N)(c2ccccc2)c2ccccc2)n(C)c2cc(Br)c(OC)cc12 | 17.7 |
| Cc1ccccc1OCC(=O)NC(Cc1c[nH]c2ccccc12)C(=O)O (configuration not stated) | 101 |
| O=C(O)c1cc(O)c(O)c(O)c1 | 94.8 |
| Cc1ccc2c(c1)C(=O)N(CC(=O)O)C2=O | 99.9 |

| Structure (SMILES) | cell viability [%] |
| --- | --- |
| CCCCc1c(O)c2ccccc2n(-c2ccccc2)c1=O | 94.3 |
| CS(=O)(=O)NC(Cc1c[nH]c2ccccc12)C(=O)O (configuration not stated) | 102 |
| CCc1ccc(C(CC(=O)c2ccc3c(c2)OCO3)Nc2ccc(Cl)cc2)cc1 (configuration not stated) | 102 |
| CCOC(=O)c1sc(N)nc1-c1ccccc1 | 110 |
| Cn1c(=O)c2c(nc(NCCOc3ccc(C(C)(C)C)cc3)n2C)n(C)c1=O | 98.4 |
| COc1cc(C2C(C#N)=C(N)Oc3n[nH]c(C)c32)ccc1O (configuration not stated) | 110 |
| COc1cc2c(cc1/C=C(\C#N)c1ccc(Cl)cc1)OCO2 | 98.9 |
| CC(=O)N1CCCCC1c1cccnc1.O.O.[Cl][Cu][Cl] (configuration not stated) | 114 |
| COC(=O)C1=C(C)NC2=C(C(=O)CCC2)C1c1coc2ccc(Cl)cc2c1=O (configuration not stated) | 116 |
| CC(=O)N1CC2c3ccccc3CCN2C1c1ccccc1 (configuration not stated) | 101 |
| CCCNC(=O)c1cc(=O)n(CC(=O)Nc2ccccc2C)c2ccccc12 | 113 |
| Cc1ccc(OCC(=O)c2cc(C)c(O)cc2O)cc1 | 88.2 |
| COC(=O)C1=C(N)Oc2c(oc(CO)cc2=O)C1c1cc(Cl)ccc1Cl (configuration not stated) | 101 |
| CO[C@@H]1O[C@H](C(=O)O)[C@H]2OC(C)(C)O[C@@H]12 | 94.4 |
| Cc1ccc(S(=O)(=O)N2Cc3ccccc3CC2C(=O)NCc2ccc(Br)cc2)cc1 (configuration not stated) | 110 |
| COc1cc(C(=O)NCc2cccnc2)ccc1OCc1ccc(Cl)cc1 | 89.2 |
| O=C1OC2C3CC(C2Sc2ccc([N+](=O)[O-])cc2)C(C(=O)O)C13 (configuration not stated) | 93.4 |
| CCCNC(=O)c1cc(=O)n(CC(=O)Nc2cccc(C)c2C)c2ccccc12 | 100 |
| COc1ccc(C(=O)Nc2sc3c(c2C(=O)OC(C)C)CCCC3)cc1OC | 97.2 |
